The text below walks through data of publication PMC7599698.

Sequences of proteins named here, by UniProt entry; tags and fusion partners are left off.
UniProt O75116: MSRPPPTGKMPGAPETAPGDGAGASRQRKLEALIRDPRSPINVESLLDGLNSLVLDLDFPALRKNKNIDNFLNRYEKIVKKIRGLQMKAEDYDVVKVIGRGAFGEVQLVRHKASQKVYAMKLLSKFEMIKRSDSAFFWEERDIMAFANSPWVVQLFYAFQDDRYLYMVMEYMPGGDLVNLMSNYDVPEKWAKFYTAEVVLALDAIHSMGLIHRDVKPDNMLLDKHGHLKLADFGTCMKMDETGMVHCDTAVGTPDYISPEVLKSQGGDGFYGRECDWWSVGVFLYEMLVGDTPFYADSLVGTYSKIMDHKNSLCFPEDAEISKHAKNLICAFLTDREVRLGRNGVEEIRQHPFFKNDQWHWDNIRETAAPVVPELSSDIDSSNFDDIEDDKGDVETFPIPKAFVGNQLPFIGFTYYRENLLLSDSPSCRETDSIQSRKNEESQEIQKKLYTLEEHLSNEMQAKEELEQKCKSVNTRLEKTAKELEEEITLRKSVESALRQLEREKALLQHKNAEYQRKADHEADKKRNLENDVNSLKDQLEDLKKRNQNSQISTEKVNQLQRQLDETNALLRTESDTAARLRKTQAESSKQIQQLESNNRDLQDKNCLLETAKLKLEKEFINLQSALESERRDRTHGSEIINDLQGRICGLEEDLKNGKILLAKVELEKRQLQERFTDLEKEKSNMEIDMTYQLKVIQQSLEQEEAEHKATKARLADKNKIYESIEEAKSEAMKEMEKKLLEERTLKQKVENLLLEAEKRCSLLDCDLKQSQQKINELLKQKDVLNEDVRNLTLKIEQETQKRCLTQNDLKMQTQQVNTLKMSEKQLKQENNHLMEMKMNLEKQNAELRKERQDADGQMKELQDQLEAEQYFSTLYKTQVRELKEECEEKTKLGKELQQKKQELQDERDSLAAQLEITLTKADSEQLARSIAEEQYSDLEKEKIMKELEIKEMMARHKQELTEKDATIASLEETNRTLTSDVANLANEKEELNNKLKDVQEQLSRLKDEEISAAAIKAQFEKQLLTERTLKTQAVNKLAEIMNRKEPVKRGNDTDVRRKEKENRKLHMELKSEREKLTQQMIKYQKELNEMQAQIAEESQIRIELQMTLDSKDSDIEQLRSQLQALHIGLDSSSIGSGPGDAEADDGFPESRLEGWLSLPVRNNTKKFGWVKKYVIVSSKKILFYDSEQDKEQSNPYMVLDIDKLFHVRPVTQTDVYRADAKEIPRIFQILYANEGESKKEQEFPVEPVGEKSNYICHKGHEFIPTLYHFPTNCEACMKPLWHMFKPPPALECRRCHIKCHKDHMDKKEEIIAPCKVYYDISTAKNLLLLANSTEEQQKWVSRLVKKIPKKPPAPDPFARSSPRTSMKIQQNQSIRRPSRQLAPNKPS
UniProt Q05397: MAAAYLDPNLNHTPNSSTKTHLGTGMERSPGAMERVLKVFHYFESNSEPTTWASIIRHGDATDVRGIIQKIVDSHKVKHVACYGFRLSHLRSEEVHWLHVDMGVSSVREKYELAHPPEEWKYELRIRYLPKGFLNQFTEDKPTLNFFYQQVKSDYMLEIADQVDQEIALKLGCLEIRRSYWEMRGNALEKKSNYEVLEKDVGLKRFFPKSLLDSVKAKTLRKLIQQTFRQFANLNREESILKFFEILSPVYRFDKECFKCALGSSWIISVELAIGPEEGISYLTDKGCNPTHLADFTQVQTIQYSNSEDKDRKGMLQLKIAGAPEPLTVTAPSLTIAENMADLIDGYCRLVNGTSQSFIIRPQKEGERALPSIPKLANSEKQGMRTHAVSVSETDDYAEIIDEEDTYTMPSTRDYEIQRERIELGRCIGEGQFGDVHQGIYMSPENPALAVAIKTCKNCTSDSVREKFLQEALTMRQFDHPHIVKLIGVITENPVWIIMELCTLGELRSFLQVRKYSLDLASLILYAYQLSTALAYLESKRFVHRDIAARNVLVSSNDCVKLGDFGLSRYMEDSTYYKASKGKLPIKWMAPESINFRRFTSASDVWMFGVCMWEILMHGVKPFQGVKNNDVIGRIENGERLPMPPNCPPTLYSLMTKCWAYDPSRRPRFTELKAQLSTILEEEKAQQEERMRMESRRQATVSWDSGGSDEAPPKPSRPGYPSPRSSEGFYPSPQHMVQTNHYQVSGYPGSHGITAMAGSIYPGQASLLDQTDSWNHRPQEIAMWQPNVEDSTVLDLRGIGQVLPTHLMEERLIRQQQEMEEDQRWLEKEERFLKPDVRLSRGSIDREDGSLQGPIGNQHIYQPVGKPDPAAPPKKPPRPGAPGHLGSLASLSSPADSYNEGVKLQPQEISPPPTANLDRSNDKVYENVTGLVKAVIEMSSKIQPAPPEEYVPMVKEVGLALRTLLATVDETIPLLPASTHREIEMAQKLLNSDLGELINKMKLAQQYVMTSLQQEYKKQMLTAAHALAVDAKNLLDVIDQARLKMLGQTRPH
UniProt P15311: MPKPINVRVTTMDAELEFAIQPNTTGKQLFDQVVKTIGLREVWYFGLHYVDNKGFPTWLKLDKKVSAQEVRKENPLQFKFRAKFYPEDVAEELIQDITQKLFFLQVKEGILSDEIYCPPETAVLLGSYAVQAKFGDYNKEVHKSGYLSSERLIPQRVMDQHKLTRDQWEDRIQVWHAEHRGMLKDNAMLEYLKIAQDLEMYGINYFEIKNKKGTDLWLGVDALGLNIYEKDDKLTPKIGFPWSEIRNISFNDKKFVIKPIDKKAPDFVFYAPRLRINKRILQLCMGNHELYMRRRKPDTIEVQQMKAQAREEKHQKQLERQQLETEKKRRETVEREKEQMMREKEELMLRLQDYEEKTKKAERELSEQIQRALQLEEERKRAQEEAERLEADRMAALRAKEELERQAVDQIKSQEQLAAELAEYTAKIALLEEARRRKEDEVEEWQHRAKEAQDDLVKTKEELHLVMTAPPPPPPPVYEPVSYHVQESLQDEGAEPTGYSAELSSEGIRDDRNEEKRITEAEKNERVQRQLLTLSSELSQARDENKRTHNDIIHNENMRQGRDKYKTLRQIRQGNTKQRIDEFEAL
UniProt P61586: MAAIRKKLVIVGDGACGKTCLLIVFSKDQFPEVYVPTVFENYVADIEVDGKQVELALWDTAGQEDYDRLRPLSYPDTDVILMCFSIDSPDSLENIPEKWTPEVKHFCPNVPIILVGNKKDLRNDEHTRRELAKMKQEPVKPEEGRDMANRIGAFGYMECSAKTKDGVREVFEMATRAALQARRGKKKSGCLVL

These are yes or no findings as the source states them, for the method shown. In cells and extracts the contact can be indirect. Some entries that bind do so weakly or less than the wild type.

Assay [1] has as its target coiled-coil containing protein kinase 2 (ROCK2) (human (endogenous in MCF-7 and MDA-MB-231)) (UniProt O75116). The assay can be described thus: co-IP; MDA-MB-231 cells treated with EGF (25 ng/mL) with or without CD99CRIII3 (40 µM), in part PTPN12 siRNA or plasmids for CA-GTPases, WAVE2, ARP2, ROCK2, Ezrin; lysis in PRO-PREP solution, antibody overnight at 4 °C, Protein A/G agarose, Western blot. For orientation: In western blotting, separated proteins are transferred to a membrane and probed.

For assay [2] the target is unchanged. The assay can be described thus: proximity ligation; in situ PLA (Duolink) on fixed, Triton-permeabilised MCF-7 or MDA-MB-231 cells; EGF 25 ng/mL, 15 min (or time course), 37 °C; cells in part treated with cytochalasin D, siRNAs/shRNA, CA- or DN-plasmids (FAK, c-Src, Rac1, RhoA), CD99CRIII3 or CD99-Fc.
The target of assay [3] is epidermal growth factor receptor (EGFR) (human (endogenous in MCF-7 and MDA-MB-231)) (UniProt P00533). The description is as above.
The target is the same in assay [4]. The assay can be described thus: proximity ligation; in situ PLA on MCF-7 cells treated with EGF together with CD99CRIII3.
Assay [5] deals with focal adhesion kinase (FAK) (human (endogenous in MCF-7 and MDA-MB-231)) (UniProt Q05397). The assay can be described thus: proximity ligation; in situ PLA (Duolink) on fixed, Triton-permeabilised MCF-7 or MDA-MB-231 cells; EGF 25 ng/mL, 15 min (or time course), 37 °C; cells in part treated with cytochalasin D, siRNAs/shRNA, CA- or DN-plasmids (FAK, c-Src, Rac1, RhoA), CD99CRIII3 or CD99-Fc.

Regarding Ezrin (from UniProt P15311 1-586), the binding entry in assay [1] and in assay [2] was “binds” each time.

As to “focal adhesion kinase (FAK) (from UniProt Q05397 1-1052) (enzyme)”, the binding result in assay [3] is given as “binds”; in assay [4], “no binding (condition: cells co-treated with CD99CRIII3)”.

Consider RhoA (from UniProt P61586 1-193), for which the binding result in assay [5] is “binds”.
